Results taken from patent EP0179667B1, “N6-substituted adenosines” (priority 1984, dated 1986).
At least one compound was matched to its structure with a doubt left.

Tested on: conscious rat
Assay: Antihypertensive evaluation (AHP3): direct monitoring of aortic blood pressure and heart rate
Type: in vivo
Details: 10 mg/kg
Description: This test procedure is described in the following paragraphs. A Method for the Direct Monitoring of Aortic Blood Pressure and Heart Rate from Conscious Rats The continuous monitoring of pulsatile blood pressure (BP) from unrestrained conscious rats surgically equipped with polyethylene cannulas was accomplished by means of a computer assisted data capture scheme (CADCS). The basic elements of the methodology are the cannulation procedure and the CADCS. Cannulation Procedure: Rats were anesthetized with Telazol (1:1 tiletamine HCI and zolazepam HCI); 20-40 mg/kg IM and the descending aorta exposed via a midline incision. Cannulas fabricated from polyethylene tubing were inserted into the aorta via an undersized puncture hole below the renal arteries. […] The cannulas, consisting of a PE100 (0.86 mm ID) body and a PE50 (0.58 mm ID) tip, were attached to a trocar, inserted through the psoas muscle, and passed subcutaneously along the midline of the back and externalized between the ears. The cannulas were anchored to the posas muscle and between the scaluale (3-0 green braided suture). The midline incision was closed in two steps (muscle first, skin second) using continuous over-and over sutures (4-0 chronic). Each rat was then given penicillin 30,000 units subcutaneously (Penicillin G Procaine Sterile Suspension). The rats were fitted with a harness-spring-swivel assembly designed to protect the cannula and to provide the rat relative freedom of movement. […] While on test, each rat received a continuous slow infusion of heparinized saline solution (approximately 400 I or 40 units of heparin per 24 hour period) to prevent clot formation. […] The data were first stored on the data concentrator disk and then transferred to a magnetic tape for analysis and report generation by the main research computer. The overall scheme involved modulating the primary signal from the pressure transducer, generating the primary data set of the one-minute values for systolic, diastolic, and mean blood pressures and heart rate by the in-lab microcomputer and the storage, analysis, and report generation by the main research computer. The transducers were connected to analog signal conditioning mocules. The modules provided a regulated excitation voltage for the transducers, amplification as required to interface the microprocessors and an active low pass filter to compensate for the pressure wave form distortion produced by the flexible, fluid filled, narrow cannula. […] The microcomputer controlled the sequential acqusition of data from the modular interface units through an internal synchronous time-of-day clock/time base generator. […] The microcomputer processed each blood pressure sample as it was received to produce "running average" values for heart rate, and mean, systolic and diastolic blood pressures.

O[C@@H]1[C@H](O)[C@@H](COCc2ccccc2)O[C@H]1n1cnc2c(NC3CCCc4ccccc43)ncnc21 (stereo partly shown) [Example 20, N^6-tetralinyl-5'-benzylether-adenosine]
change in HR (Heart Rate) (Hour 1, conscious rat): ↓30% | change in MAP (Mean Arterial Pressure) (Hour 1, conscious rat): ↓51% | change in HR (Heart Rate) (Hour 3, conscious rat): ↓29% | change in MAP (Mean Arterial Pressure) (Hour 3, conscious rat): ↓38% | change in HR (Heart Rate) (Hour 5, conscious rat): ↓21% | change in MAP (Mean Arterial Pressure) (Hour 5, conscious rat): ↓38% | change in HR (Heart Rate) (Hour 7, conscious rat): ↓14% | change in MAP (Mean Arterial Pressure) (Hour 7, conscious rat): ↓33% | change in HR (Heart Rate) (Hour 9, conscious rat): ↓15% | change in MAP (Mean Arterial Pressure) (Hour 9, conscious rat): ↓29%
